The text below walks through data of PubChem BioAssay AID2685 (National Center for Advancing Translational Sciences (NCATS), 2010).

This experiment is described as follows: qHTS Assay for Lipid Storage Modulators in Drosophila S3 Cells.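 For cell number change: cells counted by Cell Tracker Red CMTPX staining in the red channel.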 The note with it: BODIPY lipid droplet fluorescence, 18-24 h; for cell number change: measured here: cell count max response, cells fed with added oleic acid. The method, boiled down: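 Drosophila S3 cells got compounds at several concentrations plus oleic acid (400 uM solution). Laser-scanning cytometry with 488 nm excitation read lipid droplets at 500-530 nm and cells at 575-640 nm. Percent activity was relative to 20 uM Triacsin C.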

The mark [1] stands for this setting: measured here: cell number channel AC50, cells fed with added oleic acid.
Setting [2] is: measured here: lipid fluorescence (Fed channel) AC50, cells fed with added oleic acid.

This is one part of the list. Further columns of the screen follow, without active or inactive calls. Most of these compounds were active or inconclusive in the main read-out, so they are no random draw. The note in brackets gives the kind of curve behind each potency; many fits are weak.

A word on the AC50: it is the concentration giving half of the maximal activity seen. Read a low AC50 as greater potency. For `Cc1ccc(OCC(=O)Nc2ccc(NC(=O)c3ccccc3)c(C)c2)cc1`, the cell number change worked out at 62.9%. Also, the AC50 under setting [1] was 25.9 µM [rising, single point]. Take `CCn1c(CNC(=O)c2cccc(C)c2)nnc1SCC(=O)NC1=NCCS1`: the cell number change is -5.13%.

Consider `COc1ccccc1CNC(=O)N1CCN(c2ccccc2C)CC1`, for which the cell number change is -8.56%. Moreover, the concentration at half-maximal activity (AC50) under setting [2] was 0.164 µM [rising, full curve, poor fit]. Turning to `CCCCCCc1cc2cc(-c3nnc(-c4ccccc4OC)o3)c(=O)oc2cc1O`, the cell number change was -59.4%. For the same molecule, the AC50 under setting [1] is 29.1 µM [falling, partial curve]. As to `CC1Cc2ccccc2N1C(=O)CSC1=NCCS1` (centres undefined), the cell number change is -9.97%. Also, the AC50 under setting [2] is 0.0291 µM [falling, full curve]. Regarding `COc1ccc(OC)c(NC(=O)c2cc3c(Cl)nc4ccccc4c3s2)c1`, the cell number change turned out to be 0.986%.

For `O=C(Nc1cccc(-c2nc3ccccc3o2)c1)c1cccnc1`, the cell number change was 23.3%. As to `CN(C(=O)CCN1C(=O)c2ccccc2C1=O)C1CCCCC1`, the cell number change came out at 114%. The concentration at half-maximal activity (AC50) under setting [1] was 9.2 µM [rising, partial curve]. For the same molecule, the concentration at half-maximal activity (AC50) under setting [2] was 6.51 µM [rising, single point].

With `CCNc1c([N+](=O)[O-])c(=O)oc2ccccc12`, the cell number change turned out to be 43.3%. For the same molecule, the AC50 under setting [1] was 20.6 µM [rising, partial curve].

`C=CCN(CC=C)CCCOc1ccccc1C(=O)OC`: the cell number change was -28.6%. Also, the AC50 under setting [2] was 29.1 µM [falling, single point]. `CC(C)C[C@H](NC(=O)OC(C)(C)C)c1nnc(SCC(=O)Nc2ccc(Br)cc2)o1`: the cell number change was -39.3%. Moreover, the AC50 under setting [1] was 9.2 µM [falling, partial curve]. Further, under setting [2], the AC50 was 29.1 µM [falling, single point]. For the molecule `Cc1ccc(-c2noc(N=O)c2NO)cc1`, the cell number change is -15.4%. With `O=C1N/C(=C/c2ccc(Br)s2)C(=O)N1c1ccccc1`, the cell number change is -46.4%. Further, the concentration at half-maximal activity (AC50) under setting [1] is 29.1 µM [falling, single point]. Also, under setting [2], the half-maximal activity concentration (AC50) was 25.9 µM [falling, partial curve, poor fit]. Regarding `Cc1nnc(N2C(=O)c3ccc(Br)cc3C2=O)s1`, the cell number change is -11.4%. For the same molecule, the AC50 under setting [2] is 25.9 µM [rising, partial curve, poor fit]. With `CCC(Oc1ccccc1)C(=O)N1CC(C)CC(C)C1` (centres undefined), the cell number change is -1.35%. Moreover, under setting [2], the AC50 was 14.6 µM [falling, partial curve]. In the case of `Cc1c(C(=O)N2CCOCC2)c(S(=O)(=O)Nc2cccc(C#N)c2)c(C)n1C`, the cell number change amounted to 17.4%. The half-maximal activity concentration (AC50) under setting [2] is 25.9 µM [rising, partial curve, poor fit]. For the molecule `CN1CCN(c2c(F)cc3c(=O)c(C(=O)O)cn(CCF)c3c2F)CC1`, the cell number change was -47.8%. Moreover, the AC50 under setting [1] was 3.66 µM [falling, full curve]. Moreover, the AC50 under setting [2] was 2.91 µM [falling, full curve].

Take `Cc1ccc2c([N+](=O)[O-])cccc2n1`: the cell number change was 0.392%. Also, the AC50 under setting [2] was 0.58 µM [rising, single point].

Turning to `CCOc1ccccc1-n1nnnc1SCC(=O)NC(=O)Cc1ccccc1`, the cell number change was 1.6%. Also, the half-maximal activity concentration (AC50) under setting [2] is 0.0517 µM [rising, full curve]. Turning to `COc1ccc(CC(=O)NNS(=O)(=O)c2ccc3ccccc3c2)cc1OC`, the cell number change was -15.2%.

For the molecule `Cc1ccc2cc(CN(CC3CCCO3)C(=O)NC3CCCCC3)c(=O)[nH]c2c1C` (centres undefined), the cell number change is -22.5%. In addition, the half-maximal activity concentration (AC50) under setting [2] was 1.84 µM [rising, full curve, poor fit].

As to `Cc1cccc2cc(CN(Cc3cccnc3)C(=S)NCCCN(C)C)c(=O)[nH]c12`, the cell number change is -13.2%. In addition, under setting [2], the AC50 was 29.1 µM [falling, single point]. `O=C(CCCCCN1C(=O)c2ccccc2C1=O)NCc1ccco1`: the cell number change was -13.7%.

For `COCCn1c(C)nc2oc3ccc(Br)cc3c(=O)c2c1=O`, the cell number change is -6.84%. Moreover, the AC50 under setting [2] was 0.00411 µM [rising, full curve, poor fit].

For `O=C(NCc1ccccc1)c1cc(-n2cnnc2)ccc1Cl`, the cell number change was -13.5%. Further, the AC50 under setting [1] is 0.00461 µM [rising, full curve, poor fit]. Also, the AC50 under setting [2] is 11.6 µM [falling, partial curve, poor fit].

For the molecule `Cc1noc(C)c1S(=O)(=O)NCC(=O)O`, the cell number change was determined as 6.39%. Also, the concentration at half-maximal activity (AC50) under setting [2] was 29.1 µM [falling, partial curve]. For the molecule `Cc1[nH]c(=O)[nH]c(=O)c1NC(=O)c1sc2nc3c(C)cccc3cc2c1N`, the cell number change is 23.5%. The concentration at half-maximal activity (AC50) under setting [2] is 3.66 µM [rising, partial curve]. On to `COc1ccc(-c2nc(CS(=O)CC(=O)NCCN3CCCCCC3)c(C)o2)cc1OC` (centres undefined), for which the cell number change was -3.63%. On to `CC(=O)Nc1ccc(NC(=O)CSCCc2ccccn2)cc1`, for which the cell number change is -35.7%. Moreover, the AC50 under setting [1] is 0.731 µM [falling, full curve]. Consider `O=C(CN1CCSC1=O)N1CCN(S(=O)(=O)c2ccc(F)cc2)CC1`, for which the cell number change was -8.87%. The AC50 under setting [2] was 0.0164 µM [rising, full curve, poor fit]. As to `CCCn1c(-c2ccc(OC)cc2)nc2ccccc21`, the cell number change is 8.16%. Besides, the AC50 under setting [1] was 0.00461 µM [rising, full curve, poor fit].

Consider `Clc1cccc(Cl)c1C1=NOC(c2nnc(-c3ccccc3)o2)C1` (centres undefined), for which the cell number change is -2.19%. Still for that read-out and setting: the result for `CC(=O)c1c(C)n(-c2cccc(Cl)c2)c2ccc(O)cc12` reads 12.8%.

Regarding `CS/C(=C\[N+](=O)[O-])Nc1ccc(Cl)cc1`, the cell number change was 35.9%. In addition, the AC50 under setting [1] was 29.1 µM [rising, single point]. `O=C(c1ccccc1NS(=O)(=O)c1ccc(F)cc1)N1CCOCC1`: the cell number change was found to be 20.2%. Take `Cc1ccc(C)c(S(=O)(=O)Nc2ccc(C(=O)NCCCN3CCOCC3)cc2)c1`: the cell number change is -12.4%. As to `COc1cccc(NC(=O)c2ccccc2-c2nc(-c3ccc(Cl)cc3)no2)c1`, the cell number change is -22%. For the same molecule, the concentration at half-maximal activity (AC50) under setting [2] is 13 µM [rising, partial curve].

On to `CCc1c(C)sc(NC(=O)Cn2nc(C(F)(F)F)c3c2CCCC3)c1C#N`, for which the cell number change was 136%. On to `COc1cc(Cl)cc(CN2CCC(CCC(=O)NC3CC3)CC2)c1OC`, for which the cell number change came out at 28.8%. Further, the AC50 under setting [2] is 18.4 µM [rising, single point]. Turning to `COc1ccc(NC(=O)c2cc(-c3ccc(C)cc3)on2)cc1OC`, the cell number change was -23.8%. In the case of `Cc1c(S(=O)(=O)N2CCC(C)CC2)c(=O)n(C)c(=O)n1C`, the cell number change is -37.6%. Under setting [1], the AC50 was 0.164 µM [falling, partial curve, poor fit]. Also, under setting [2], the half-maximal activity concentration (AC50) is 4.61 µM [falling, full curve]. Turning to `O=C(CSc1nc2c(sc3ccccc32)c(=O)n1CCO)NCc1ccco1`, the cell number change was -4.52%. For the same molecule, the AC50 under setting [2] is 0.517 µM [falling, single point].

Take `O=S(=O)(N/N=C/c1ccc(Cl)cc1)c1ccc(Cc2ncc(C(F)(F)F)cc2Cl)s1`: the cell number change was -3.74%. In addition, the AC50 under setting [2] is 0.116 µM [rising, full curve, poor fit]. For `O=C(Cn1cncn1)NCc1cccc(C(F)(F)F)c1`, the cell number change was found to be 34.6%. Further, under setting [1], the AC50 is 6.51 µM [rising, partial curve, poor fit]. Besides, the half-maximal activity concentration (AC50) under setting [2] was 1.3 µM [rising, partial curve]. In the case of `CCOCCc1nnc(NC(=O)C(C)Oc2ccccc2)s1` (centres undefined), the cell number change was -26.3%. Moreover, the AC50 under setting [2] was 7.31 µM [falling, single point]. Regarding `O=C(CNC(=O)C12CC3CC(CC(C3)C1)C2)OCC(=O)N1CCCCC1`, the cell number change worked out at 10%. On to `COCCNC(=O)C(c1ccc(F)cc1)N(C(=O)CCC(=O)Nc1ccccn1)c1ccc(C)cc1` (centres undefined), for which the cell number change is 11.7%. In addition, under setting [2], the half-maximal activity concentration (AC50) was 0.58 µM [rising, single point]. Take `CCC1CCCCN1CC(=O)Nc1ccc2c(c1)OCCO2` (centres undefined): the cell number change turned out to be 10.1%. In addition, the half-maximal activity concentration (AC50) under setting [1] is 0.731 µM [rising, partial curve, poor fit]. `COC(=O)c1sc(SC)c2c1CC(C)(C)C/C2=N/O`: the cell number change is -2.77%. As to `COc1cc2c(cc1NC(=O)CSc1nc3ccc(C)cc3[nH]1)oc1ccccc12`, the cell number change was -59%. Further, the half-maximal activity concentration (AC50) under setting [1] was 29.1 µM [falling, single point]. For the same molecule, the AC50 under setting [2] was 32.6 µM [falling, partial curve, poor fit].

Regarding `COc1ccc(-c2cc(C(=O)N(C)Cc3cccc(OC)c3OC)c3ccccc3n2)cc1OC`, the cell number change was -10.3%. For the same molecule, under setting [2], the AC50 was 4.11 µM [rising, partial curve]. With `CCOC(=O)c1c(C)n(-c2ccc(C)cc2)c2ccc(O)c(CN(C)C)c12`, the cell number change is -11.1%. For the same molecule, under setting [2], the concentration at half-maximal activity (AC50) is 0.116 µM [falling, full curve, poor fit]. For `O=C(CCNS(=O)(=O)c1ccc(Cl)cc1)N1CCN(c2ncccn2)CC1`, the cell number change was 23.3%. Turning to `O=C(O)C1CCN(S(=O)(=O)c2ccc(N3CCOCC3)c([N+](=O)[O-])c2)CC1`, the cell number change came out at 5.25%. For the molecule `O=C(Cc1ccc(S(=O)(=O)N2CCOCC2)s1)Nc1nc2c(s1)CCCC2`, the cell number change was -20.5%.

`Cc1cc(C(=O)OCC(=O)N2C(C)CCCC2C)c(C)o1` (centres undefined): the cell number change was -36.2%. Moreover, the AC50 under setting [1] was 16.4 µM [falling, partial curve, poor fit]. Further, the AC50 under setting [2] was 5.17 µM [falling, partial curve, poor fit]. With `CCOC(=O)Cn1c(S(=O)(=O)Cc2ccccc2Cl)nc(-c2ccccc2)c1-c1ccccc1`, under setting [1], the AC50 is 6.51 µM [rising, single point]. With `C=CCNC(=O)NC(=O)COC(=O)c1cccnc1SC`, the cell number change was determined as 14.4%. For `NC(=S)NNC(=O)Nc1ccc(Cl)c(Cl)c1`, the cell number change was -50%. The AC50 under setting [1] was 29.1 µM [falling, partial curve, poor fit]. In the case of `COc1ccc(C2=NOC(C(=O)Nc3cccnc3)C2)cc1OC` (centres undefined), the cell number change turned out to be 0.191%.

Turning to `O=C(C1=NN[C@@H]2C(=O)N(Cc3ccccc3)C(=O)[C@H]12)c1ccc(F)cc1`, the cell number change was -38.4%. Moreover, under setting [1], the AC50 was 18.4 µM [falling, partial curve, poor fit]. The concentration at half-maximal activity (AC50) under setting [2] is 6.51 µM [falling, single point].

As for `CCN(Cc1ccccc1)C(=S)NC(=O)c1ccccc1Br`, the cell number change is -8.11%. The AC50 under setting [2] is 29.1 µM [falling, single point].

For the molecule `CCOC(=O)CC1(NC(=O)C2CCC(=O)N(C3CC3)C2)CCCCC1` (centres undefined), the cell number change came to 3.42%. Under setting [2], the half-maximal activity concentration (AC50) was 29.1 µM [rising, single point]. Consider `Cc1nc2ccc(NC(=O)c3ccc([N+](=O)[O-])cc3[N+](=O)[O-])cc2s1`, for which the cell number change was -31.8%. Further, the AC50 under setting [1] is 16.4 µM [falling, single point]. As for `Cc1nnc(NC(=O)CSc2nnc(Cc3cccn3C)n2CCc2ccccc2)s1`, the cell number change came to 7.89%. In addition, the AC50 under setting [2] was 0.184 µM [falling, full curve].
